Some of the results follow.
Experiments:
Assay in all cases: log2 fold change, soluble protein after heating vs DMSO (PISA); higher = thermal stabilisation; K562 lysate, 10 uM; active = over 0.2 and 3.5 SD of the protein, either way, in both replicates (recomputed)
[1] = compound: NCC(=O)Nc1ccc(-n2nc(C(F)(F)F)cc2-c2ccc3c(ccc4ccccc43)c2)cc1
Outline: (§1)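 A 30 min treatment with 10 μM compound was applied to crude K562 extract at 1 mg/mL protein in PBS pH 7.4 with 1 mM MgCl2. Heating for 3 min spanned 48°C-58°C, after which aliquots were pooled, adjusted to 0.5% NP-40 at 4°C and spun at 21,000xg for 90 min. TMTpro 16plex LC-MS/MS of the supernatant, with channel sums equalised, gave values recorded as log-two fold change in thermal stability against solvent controls, from duplicates.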

Chains of the proteins cited; added tags and fusions are not shown. Lines headed by an entry give the natural chain unless they say otherwise; changes in a name come on top.
UniProt Q4G148: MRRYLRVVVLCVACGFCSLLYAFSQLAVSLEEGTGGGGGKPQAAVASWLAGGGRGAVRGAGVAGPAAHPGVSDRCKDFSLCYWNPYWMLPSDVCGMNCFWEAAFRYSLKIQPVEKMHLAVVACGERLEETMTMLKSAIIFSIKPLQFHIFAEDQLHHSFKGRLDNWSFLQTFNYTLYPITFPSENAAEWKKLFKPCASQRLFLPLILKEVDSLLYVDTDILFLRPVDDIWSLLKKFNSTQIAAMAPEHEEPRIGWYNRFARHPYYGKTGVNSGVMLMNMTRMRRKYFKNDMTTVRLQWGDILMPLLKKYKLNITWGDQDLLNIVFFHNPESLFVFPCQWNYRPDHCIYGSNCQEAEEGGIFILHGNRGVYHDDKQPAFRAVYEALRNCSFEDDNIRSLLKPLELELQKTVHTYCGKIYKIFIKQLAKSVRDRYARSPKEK
UniProt Q92522: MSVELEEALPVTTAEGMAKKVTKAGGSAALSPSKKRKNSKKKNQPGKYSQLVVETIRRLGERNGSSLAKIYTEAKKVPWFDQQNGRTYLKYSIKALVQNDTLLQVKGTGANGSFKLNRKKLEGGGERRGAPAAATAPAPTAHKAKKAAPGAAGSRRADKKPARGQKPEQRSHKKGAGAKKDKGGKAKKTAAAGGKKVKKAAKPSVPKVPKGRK
UniProt P02042: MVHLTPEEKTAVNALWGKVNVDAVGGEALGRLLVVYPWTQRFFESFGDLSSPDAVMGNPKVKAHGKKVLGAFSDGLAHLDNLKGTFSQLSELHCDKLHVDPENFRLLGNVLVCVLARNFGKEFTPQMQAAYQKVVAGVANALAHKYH
UniProt Q7Z4H3: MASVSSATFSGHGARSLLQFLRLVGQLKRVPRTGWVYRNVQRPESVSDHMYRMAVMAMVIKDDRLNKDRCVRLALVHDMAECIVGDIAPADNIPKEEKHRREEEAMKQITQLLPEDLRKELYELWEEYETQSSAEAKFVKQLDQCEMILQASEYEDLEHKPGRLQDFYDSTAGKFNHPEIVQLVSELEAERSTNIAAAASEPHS
UniProt P52657, whole entry, looked up: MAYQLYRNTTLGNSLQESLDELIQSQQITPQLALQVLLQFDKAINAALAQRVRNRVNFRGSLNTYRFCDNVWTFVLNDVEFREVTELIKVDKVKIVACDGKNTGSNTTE
UniProt P00390: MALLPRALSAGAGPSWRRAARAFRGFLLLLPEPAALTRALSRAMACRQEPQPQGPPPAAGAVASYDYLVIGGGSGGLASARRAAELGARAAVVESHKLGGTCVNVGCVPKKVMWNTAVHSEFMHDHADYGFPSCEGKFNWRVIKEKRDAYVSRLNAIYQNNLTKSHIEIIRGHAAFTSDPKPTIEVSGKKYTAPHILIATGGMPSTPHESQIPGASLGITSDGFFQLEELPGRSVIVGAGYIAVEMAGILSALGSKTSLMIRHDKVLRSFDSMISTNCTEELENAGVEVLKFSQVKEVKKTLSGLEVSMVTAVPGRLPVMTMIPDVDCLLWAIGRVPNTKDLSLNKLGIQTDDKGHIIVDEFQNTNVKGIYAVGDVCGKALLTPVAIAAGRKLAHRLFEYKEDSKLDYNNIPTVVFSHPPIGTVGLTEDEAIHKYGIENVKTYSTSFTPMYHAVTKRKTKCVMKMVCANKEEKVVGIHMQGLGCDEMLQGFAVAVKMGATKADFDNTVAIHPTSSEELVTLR
UniProt P36969, whole entry, looked up: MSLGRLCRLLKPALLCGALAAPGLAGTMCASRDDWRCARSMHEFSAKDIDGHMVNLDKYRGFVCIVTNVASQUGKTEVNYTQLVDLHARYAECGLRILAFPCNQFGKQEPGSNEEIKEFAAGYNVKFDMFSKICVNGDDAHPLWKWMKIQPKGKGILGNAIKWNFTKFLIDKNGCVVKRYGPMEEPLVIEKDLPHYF
UniProt Q8TAA5: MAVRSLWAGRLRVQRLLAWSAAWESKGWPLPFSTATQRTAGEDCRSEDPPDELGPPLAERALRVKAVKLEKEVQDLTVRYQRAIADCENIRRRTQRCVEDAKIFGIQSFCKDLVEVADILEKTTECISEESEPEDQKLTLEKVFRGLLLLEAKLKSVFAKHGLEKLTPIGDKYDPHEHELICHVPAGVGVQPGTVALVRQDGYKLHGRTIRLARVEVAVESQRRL
UniProt P29083: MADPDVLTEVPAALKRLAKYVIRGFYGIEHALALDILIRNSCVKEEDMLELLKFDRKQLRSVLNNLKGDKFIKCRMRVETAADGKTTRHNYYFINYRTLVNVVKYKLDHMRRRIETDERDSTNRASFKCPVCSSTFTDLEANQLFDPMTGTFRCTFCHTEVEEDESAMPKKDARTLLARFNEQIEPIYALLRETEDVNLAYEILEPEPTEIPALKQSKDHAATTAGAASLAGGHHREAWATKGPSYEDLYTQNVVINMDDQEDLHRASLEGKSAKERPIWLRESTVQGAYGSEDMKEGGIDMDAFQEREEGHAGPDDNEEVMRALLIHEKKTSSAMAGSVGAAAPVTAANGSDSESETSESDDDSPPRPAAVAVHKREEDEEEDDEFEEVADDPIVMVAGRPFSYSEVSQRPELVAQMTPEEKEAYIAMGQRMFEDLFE
UniProt O75791: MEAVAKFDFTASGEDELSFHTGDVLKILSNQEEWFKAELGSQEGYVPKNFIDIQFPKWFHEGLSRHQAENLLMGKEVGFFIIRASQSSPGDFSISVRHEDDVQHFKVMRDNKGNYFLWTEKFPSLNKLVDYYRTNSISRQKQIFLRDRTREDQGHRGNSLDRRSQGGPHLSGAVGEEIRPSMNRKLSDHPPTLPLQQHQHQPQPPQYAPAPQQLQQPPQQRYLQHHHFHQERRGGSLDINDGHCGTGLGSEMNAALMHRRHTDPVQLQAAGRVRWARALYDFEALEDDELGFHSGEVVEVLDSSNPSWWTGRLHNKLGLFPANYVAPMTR
UniProt Q4V328: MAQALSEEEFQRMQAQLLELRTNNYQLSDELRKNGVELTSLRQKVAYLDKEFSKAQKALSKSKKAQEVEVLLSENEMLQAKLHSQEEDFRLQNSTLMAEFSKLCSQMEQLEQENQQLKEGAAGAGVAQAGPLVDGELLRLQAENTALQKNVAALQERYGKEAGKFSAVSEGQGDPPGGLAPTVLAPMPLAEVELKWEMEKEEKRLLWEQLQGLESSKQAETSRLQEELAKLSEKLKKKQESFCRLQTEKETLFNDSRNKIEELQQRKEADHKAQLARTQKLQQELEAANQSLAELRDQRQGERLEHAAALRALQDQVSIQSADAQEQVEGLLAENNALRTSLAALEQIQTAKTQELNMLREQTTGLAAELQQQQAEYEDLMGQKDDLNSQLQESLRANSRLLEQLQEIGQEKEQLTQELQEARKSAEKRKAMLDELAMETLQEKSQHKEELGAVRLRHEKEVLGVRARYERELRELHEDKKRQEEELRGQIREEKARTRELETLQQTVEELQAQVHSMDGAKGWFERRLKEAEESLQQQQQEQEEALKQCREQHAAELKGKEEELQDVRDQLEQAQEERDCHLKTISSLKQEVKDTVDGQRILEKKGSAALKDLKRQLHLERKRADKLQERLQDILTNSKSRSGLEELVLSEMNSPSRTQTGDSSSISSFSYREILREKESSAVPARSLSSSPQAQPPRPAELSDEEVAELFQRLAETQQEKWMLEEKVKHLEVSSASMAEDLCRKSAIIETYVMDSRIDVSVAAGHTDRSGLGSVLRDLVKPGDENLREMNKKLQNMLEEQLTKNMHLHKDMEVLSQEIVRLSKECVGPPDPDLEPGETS
UniProt P51610: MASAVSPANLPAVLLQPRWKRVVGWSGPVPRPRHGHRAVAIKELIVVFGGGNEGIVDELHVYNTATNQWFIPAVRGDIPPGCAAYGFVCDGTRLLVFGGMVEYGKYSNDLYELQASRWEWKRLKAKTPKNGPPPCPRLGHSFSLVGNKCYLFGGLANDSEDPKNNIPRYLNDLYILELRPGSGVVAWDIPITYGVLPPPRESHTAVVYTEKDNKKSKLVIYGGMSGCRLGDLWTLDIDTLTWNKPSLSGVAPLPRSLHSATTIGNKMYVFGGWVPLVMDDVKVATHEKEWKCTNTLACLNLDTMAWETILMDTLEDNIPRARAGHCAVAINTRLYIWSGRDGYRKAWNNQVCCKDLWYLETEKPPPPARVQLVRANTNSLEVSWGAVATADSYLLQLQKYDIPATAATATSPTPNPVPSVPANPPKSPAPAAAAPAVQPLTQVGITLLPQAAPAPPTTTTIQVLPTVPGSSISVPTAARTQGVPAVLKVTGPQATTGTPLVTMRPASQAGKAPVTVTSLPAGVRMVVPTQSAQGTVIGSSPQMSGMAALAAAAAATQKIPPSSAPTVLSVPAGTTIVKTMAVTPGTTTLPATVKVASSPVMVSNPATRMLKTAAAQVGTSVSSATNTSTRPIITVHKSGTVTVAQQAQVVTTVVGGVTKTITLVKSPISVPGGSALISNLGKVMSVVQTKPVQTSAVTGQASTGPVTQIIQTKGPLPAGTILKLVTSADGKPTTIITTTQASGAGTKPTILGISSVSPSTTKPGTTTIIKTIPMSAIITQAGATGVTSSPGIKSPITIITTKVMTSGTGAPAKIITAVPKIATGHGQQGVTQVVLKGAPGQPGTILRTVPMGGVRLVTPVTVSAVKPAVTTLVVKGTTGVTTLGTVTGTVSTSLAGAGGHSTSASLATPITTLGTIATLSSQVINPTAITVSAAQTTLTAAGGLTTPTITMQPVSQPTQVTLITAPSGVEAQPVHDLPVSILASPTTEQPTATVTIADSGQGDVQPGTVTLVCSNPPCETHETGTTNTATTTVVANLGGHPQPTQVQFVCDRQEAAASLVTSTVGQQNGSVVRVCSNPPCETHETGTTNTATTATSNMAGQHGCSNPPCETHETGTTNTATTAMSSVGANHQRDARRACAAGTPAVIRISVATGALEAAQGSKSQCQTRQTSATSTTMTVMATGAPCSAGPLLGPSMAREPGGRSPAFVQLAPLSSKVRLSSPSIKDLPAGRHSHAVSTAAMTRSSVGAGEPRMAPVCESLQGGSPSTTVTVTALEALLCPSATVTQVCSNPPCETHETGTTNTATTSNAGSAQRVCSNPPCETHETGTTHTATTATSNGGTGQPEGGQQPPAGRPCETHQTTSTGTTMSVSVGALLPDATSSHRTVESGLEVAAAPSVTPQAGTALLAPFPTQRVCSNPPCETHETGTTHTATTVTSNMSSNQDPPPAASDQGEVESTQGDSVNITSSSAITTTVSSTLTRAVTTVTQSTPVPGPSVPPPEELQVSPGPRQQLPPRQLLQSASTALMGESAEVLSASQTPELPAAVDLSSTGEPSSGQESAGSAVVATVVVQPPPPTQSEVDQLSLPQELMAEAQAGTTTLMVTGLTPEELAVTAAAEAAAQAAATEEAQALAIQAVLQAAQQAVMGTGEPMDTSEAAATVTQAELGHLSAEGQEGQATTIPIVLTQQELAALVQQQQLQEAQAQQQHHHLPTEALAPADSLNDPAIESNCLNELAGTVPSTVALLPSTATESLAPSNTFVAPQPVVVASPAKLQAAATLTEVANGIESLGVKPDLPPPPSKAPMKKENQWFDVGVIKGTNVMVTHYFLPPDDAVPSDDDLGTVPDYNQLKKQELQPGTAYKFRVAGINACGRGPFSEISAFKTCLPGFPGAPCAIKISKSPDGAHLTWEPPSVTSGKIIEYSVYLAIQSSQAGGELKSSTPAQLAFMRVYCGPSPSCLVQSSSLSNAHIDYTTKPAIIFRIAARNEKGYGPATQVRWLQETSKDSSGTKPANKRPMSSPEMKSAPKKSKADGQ
UniProt Q13322: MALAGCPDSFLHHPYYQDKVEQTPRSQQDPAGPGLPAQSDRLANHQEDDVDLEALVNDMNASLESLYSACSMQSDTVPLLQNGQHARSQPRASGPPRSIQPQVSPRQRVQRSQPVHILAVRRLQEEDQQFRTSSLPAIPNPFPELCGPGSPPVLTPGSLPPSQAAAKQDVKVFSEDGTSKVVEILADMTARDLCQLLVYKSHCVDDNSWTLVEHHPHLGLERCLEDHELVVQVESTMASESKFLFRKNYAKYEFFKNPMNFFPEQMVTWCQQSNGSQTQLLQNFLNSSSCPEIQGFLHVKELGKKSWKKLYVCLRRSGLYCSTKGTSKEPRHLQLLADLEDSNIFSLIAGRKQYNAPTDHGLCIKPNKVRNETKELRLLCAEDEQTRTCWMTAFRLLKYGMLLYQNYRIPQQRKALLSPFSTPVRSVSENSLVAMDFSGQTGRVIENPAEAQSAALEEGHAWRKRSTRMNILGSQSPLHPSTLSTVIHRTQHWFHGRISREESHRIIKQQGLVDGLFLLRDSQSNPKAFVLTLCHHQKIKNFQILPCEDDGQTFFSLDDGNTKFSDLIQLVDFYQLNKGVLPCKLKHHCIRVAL
UniProt Q9HAV7: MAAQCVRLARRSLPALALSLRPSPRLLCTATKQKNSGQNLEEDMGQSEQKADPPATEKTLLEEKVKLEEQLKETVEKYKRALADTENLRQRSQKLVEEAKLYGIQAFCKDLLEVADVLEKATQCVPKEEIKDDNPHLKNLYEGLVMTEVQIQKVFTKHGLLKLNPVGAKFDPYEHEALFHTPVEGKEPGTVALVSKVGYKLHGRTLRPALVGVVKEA

vorinostat = compound: O=C(CCCCCCC(=O)Nc1ccccc1)NO [vorinostat]
Outline: as §1

silmitasertib = compound: O=C(O)c1ccc2c(c1)nc(Nc1cccc(Cl)c1)c1ccncc12 [silmitasertib]
Outline: as §1

[2] = compound: O=C1NC(=O)C(c2cnc3ccccn23)=C1c1cn2c3c(cc(F)cc13)CN(C(=O)N1CCCCC1)CC2
Outline: as §1

entospletinib = compound: c1cn2cc(-c3ccc4cn[nH]c4c3)nc(Nc3ccc(N4CCOCC4)cc3)c2n1 [entospletinib]
Outline: as §1

Target	log2 fold change [1]	log2 fold change (vorinostat)	log2 fold change (silmitasertib)	log2 fold change [2]	log2 fold change (entospletinib)
GSPT1 isoform 3 (UniProt P15170)	inactive: -0.013	inactive: 0.023	inactive: -0.014	inactive: 0.005	inactive: 0.013
GXYLT1 (UniProt Q4G148)	inactive: -0.058	inactive: 0.058	inactive: -0.003	inactive: 0.031	inactive: 0.097
HAGHL isoform 2 (UniProt Q6PII5)	inactive: -0.006	inactive: 0.071	inactive: 0.031	inactive: -0.019	inactive: -0.006
H1FX (UniProt Q92522)	inactive: -0.013	inactive: 0.141	inactive: 0	inactive: 0.03	inactive: -0.008
GTF3C3 (UniProt Q9Y5Q9)	inactive: -0.007	active: -0.291	inactive: 0.018	inactive: 0.011	inactive: -0.052
GSTO1 (UniProt P78417)	inactive: -0.002	inactive: 0.109	inactive: -0.009	inactive: -0.009	inactive: 0.011
HBD (UniProt P02042)	inactive: -0.01	inactive: 0.068	inactive: -0.057	inactive: 0.001	inactive: -0.072
HBE1 (UniProt P02100)	inactive: -0.057	inactive: 0.085	inactive: -0.044	inactive: 0.015	inactive: -0.078
HDDC2 (UniProt Q7Z4H3)	inactive: -0.076	inactive: 0.148	inactive: 0	inactive: -0.01	inactive: 0.024
GSPT2 (UniProt Q8IYD1)	inactive: -0.026	inactive: -0.006	inactive: -0.018	inactive: 0.054	inactive: -0.031
GTF2A2 (UniProt P52657)	inactive: -0.01	inactive: 0.123	inactive: -0.068	inactive: -0.046	inactive: 0.047
HDAC5 isoform 3 (UniProt Q9UQL6)	inactive: -0.017	inactive: -0.079	inactive: -0.023	inactive: -0.001	inactive: -0.02
HAUS1 (UniProt Q96CS2)	inactive: 0.045	inactive: -0.042	inactive: 0.02	inactive: 0.017	inactive: 0.001
HARS (UniProt P12081)	inactive: -0.031	inactive: -0.003	inactive: 0.02	inactive: -0.054	inactive: 0.001
GRB2 (UniProt P62993)	inactive: -0.003	inactive: 0.082	inactive: -0.022	inactive: -0.026	inactive: 0.007
GSR (UniProt P00390)	inactive: -0.008	inactive: 0.1	inactive: 0.005	inactive: -0.005	inactive: 0
GPX4 (UniProt P36969)	inactive: -0.007	active: -0.306	inactive: 0.017	inactive: -0.023	inactive: 0.037
H2AZ1 (UniProt P0C0S5)	inactive: 0.061	inactive: 0.099	inactive: 0.021	inactive: -0.015	inactive: 0.013
GRPEL2 (UniProt Q8TAA5)	inactive: 0.091	inactive: -0.182	inactive: -0.082	inactive: -0.04	inactive: 0.034
GTF2E1 (UniProt P29083)	inactive: -0.02	inactive: -0.002	inactive: -0.007	inactive: -0.003	inactive: -0.013
GRAP2 (UniProt O75791)	inactive: -0.016	inactive: -0.073	inactive: 0.025	inactive: -0.007	inactive: -0.088
HDAC4 (UniProt P56524)	inactive: -0.024	inactive: 0.019	inactive: -0.066	inactive: -0.045	inactive: -0.008
GRIPAP1 (UniProt Q4V328)	inactive: -0.01	inactive: 0.049	inactive: 0.022	inactive: 0.002	inactive: -0.01
HCFC1 isoform 4 (UniProt P51610)	inactive: -0.005	inactive: -0.068	inactive: -0.039	inactive: -0.001	inactive: 0.005
GRB10 (UniProt Q13322)	inactive: -0.001	active: -0.402	inactive: 0.065	inactive: 0.008	inactive: 0.007
GRPEL1 (UniProt Q9HAV7)	inactive: 0.01	inactive: 0.061	inactive: -0.02	inactive: 0.035	inactive: 0.007
GUK1 isoform 2 (UniProt Q16774)	inactive: 0.011	inactive: -0.105	inactive: 0	inactive: 0	inactive: 0.039

Reprinted at random: two entries already listed, in no set order.
Target	log2 fold change [1]	log2 fold change (vorinostat)	log2 fold change (silmitasertib)	log2 fold change [2]	log2 fold change (entospletinib)
HBE1 (UniProt P02100)	inactive: -0.057	inactive: 0.085	inactive: -0.044	inactive: 0.015	inactive: -0.078
H2AZ1 (UniProt P0C0S5)	inactive: 0.061	inactive: 0.099	inactive: 0.021	inactive: -0.015	inactive: 0.013

Reference: the supplement of paper PMC10849652
